# Laboratory results: paper PMC7294906
# By UniProt entry, the sequences of proteins in these tests, tags left out.
# UniProt P03372: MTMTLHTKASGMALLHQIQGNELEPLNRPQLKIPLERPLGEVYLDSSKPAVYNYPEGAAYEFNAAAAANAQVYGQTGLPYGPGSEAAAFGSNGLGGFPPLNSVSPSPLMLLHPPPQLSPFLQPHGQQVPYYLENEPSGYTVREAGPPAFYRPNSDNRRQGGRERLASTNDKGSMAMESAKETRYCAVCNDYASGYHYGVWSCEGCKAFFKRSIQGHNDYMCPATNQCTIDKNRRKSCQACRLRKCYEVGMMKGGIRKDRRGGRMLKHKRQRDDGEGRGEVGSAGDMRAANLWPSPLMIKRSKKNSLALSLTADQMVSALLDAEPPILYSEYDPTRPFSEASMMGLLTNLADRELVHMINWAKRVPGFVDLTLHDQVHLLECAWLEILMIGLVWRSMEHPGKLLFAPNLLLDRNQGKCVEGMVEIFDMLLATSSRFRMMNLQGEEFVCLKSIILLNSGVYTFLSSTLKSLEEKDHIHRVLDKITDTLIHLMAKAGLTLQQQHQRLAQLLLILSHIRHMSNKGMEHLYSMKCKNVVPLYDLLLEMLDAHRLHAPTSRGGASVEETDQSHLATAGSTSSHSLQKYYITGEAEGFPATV
# UniProt Q14686: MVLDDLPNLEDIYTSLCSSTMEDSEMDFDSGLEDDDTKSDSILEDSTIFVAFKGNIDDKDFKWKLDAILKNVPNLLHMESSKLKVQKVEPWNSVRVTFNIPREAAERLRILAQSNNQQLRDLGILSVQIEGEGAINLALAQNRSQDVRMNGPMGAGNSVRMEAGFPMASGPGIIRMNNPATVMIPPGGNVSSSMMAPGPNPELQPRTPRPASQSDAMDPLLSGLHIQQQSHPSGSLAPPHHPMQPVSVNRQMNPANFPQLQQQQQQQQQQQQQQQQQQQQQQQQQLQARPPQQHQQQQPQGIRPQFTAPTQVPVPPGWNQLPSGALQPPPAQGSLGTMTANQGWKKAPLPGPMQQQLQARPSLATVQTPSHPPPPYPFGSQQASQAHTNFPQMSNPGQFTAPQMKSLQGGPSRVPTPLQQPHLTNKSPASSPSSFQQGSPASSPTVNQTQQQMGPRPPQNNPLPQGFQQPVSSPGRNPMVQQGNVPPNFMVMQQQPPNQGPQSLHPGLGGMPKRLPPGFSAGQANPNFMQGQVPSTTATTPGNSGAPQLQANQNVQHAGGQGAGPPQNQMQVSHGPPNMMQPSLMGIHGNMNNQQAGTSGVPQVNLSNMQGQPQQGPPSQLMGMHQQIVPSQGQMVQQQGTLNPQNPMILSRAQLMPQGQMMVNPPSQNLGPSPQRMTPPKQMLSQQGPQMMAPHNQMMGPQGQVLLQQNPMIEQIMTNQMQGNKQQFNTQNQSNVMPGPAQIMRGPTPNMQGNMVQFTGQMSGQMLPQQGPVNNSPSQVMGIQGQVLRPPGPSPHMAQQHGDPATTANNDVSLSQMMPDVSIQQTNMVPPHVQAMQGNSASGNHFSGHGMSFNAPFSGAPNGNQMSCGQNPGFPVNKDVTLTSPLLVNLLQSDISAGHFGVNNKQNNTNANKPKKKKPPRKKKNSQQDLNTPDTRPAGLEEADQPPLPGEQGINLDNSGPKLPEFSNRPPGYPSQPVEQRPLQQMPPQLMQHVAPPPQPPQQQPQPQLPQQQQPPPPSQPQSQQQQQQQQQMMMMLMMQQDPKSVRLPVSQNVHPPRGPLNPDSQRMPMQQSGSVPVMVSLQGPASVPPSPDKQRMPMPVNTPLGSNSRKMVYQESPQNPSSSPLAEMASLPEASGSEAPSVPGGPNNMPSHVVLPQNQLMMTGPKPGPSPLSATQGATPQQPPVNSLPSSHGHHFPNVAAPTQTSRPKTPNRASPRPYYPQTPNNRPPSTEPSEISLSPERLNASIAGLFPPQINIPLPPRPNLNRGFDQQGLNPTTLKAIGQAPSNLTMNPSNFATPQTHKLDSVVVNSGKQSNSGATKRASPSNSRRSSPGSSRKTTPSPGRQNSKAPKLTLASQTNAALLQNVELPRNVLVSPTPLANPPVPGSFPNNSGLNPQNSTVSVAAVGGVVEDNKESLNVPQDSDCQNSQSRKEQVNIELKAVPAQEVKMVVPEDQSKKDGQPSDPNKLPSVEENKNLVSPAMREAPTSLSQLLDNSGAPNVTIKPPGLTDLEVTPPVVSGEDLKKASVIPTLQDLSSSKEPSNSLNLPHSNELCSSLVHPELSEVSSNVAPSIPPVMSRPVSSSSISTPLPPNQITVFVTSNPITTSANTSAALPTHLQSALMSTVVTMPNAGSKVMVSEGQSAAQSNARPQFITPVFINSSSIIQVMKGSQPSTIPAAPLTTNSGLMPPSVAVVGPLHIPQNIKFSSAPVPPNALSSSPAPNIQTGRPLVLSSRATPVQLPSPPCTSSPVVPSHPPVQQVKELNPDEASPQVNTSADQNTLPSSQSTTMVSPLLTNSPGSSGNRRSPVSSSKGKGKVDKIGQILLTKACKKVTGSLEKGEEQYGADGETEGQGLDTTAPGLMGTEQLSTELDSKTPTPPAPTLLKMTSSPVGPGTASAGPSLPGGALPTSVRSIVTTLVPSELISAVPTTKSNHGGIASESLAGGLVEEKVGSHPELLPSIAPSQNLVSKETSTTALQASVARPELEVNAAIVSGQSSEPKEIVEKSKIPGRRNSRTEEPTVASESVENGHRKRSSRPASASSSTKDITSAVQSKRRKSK
# UniProt Q66K14: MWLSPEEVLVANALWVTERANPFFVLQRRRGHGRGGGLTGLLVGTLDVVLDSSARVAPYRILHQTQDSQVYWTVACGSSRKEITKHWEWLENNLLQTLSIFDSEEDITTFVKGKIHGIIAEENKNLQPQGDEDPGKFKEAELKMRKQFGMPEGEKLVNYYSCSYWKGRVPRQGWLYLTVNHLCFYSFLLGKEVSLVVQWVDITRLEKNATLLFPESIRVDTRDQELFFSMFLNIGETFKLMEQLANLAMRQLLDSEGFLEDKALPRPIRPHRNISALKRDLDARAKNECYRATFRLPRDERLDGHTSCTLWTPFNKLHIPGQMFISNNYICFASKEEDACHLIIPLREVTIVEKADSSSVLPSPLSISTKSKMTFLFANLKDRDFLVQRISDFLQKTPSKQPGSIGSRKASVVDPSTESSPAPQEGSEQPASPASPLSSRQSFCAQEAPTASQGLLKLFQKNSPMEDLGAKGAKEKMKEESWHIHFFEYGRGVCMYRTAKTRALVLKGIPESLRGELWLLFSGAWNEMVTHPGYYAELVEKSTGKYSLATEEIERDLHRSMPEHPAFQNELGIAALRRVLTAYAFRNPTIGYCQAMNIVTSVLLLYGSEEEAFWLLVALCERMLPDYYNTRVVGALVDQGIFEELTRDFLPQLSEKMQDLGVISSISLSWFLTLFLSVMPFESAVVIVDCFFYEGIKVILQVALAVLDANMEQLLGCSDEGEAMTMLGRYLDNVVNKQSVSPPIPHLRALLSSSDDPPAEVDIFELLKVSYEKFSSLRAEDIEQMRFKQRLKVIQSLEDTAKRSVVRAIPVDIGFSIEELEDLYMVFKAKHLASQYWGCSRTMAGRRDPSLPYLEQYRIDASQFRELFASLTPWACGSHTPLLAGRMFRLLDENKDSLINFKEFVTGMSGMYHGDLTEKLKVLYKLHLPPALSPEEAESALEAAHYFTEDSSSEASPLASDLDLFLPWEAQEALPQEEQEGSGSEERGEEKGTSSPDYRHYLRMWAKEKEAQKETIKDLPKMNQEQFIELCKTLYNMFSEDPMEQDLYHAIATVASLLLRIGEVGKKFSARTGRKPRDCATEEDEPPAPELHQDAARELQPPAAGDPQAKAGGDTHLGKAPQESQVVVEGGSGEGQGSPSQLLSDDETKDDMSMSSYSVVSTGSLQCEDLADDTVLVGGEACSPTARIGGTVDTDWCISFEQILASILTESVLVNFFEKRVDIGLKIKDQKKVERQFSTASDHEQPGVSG
# UniProt Q13263: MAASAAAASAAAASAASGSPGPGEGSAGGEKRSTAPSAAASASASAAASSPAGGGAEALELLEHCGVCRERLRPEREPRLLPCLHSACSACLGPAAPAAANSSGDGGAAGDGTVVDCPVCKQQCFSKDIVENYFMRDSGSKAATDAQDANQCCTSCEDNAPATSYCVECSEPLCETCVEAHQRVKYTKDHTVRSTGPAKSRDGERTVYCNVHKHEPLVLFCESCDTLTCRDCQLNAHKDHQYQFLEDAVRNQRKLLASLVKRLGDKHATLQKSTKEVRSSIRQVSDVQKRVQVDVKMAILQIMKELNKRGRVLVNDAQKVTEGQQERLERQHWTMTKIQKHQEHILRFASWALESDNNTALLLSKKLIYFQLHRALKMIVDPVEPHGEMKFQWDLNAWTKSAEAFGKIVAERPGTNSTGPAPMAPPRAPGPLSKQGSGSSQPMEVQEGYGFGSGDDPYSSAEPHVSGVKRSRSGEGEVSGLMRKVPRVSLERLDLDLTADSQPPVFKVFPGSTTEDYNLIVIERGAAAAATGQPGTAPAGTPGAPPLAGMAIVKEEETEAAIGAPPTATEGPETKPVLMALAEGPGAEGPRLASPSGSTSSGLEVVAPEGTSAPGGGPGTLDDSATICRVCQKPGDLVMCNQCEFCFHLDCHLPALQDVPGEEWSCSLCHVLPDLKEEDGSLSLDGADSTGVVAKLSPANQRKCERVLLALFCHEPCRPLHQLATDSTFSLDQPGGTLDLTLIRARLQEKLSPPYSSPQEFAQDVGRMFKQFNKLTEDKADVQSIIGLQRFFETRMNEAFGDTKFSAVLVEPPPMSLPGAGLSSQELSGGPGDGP
# UniProt P10244: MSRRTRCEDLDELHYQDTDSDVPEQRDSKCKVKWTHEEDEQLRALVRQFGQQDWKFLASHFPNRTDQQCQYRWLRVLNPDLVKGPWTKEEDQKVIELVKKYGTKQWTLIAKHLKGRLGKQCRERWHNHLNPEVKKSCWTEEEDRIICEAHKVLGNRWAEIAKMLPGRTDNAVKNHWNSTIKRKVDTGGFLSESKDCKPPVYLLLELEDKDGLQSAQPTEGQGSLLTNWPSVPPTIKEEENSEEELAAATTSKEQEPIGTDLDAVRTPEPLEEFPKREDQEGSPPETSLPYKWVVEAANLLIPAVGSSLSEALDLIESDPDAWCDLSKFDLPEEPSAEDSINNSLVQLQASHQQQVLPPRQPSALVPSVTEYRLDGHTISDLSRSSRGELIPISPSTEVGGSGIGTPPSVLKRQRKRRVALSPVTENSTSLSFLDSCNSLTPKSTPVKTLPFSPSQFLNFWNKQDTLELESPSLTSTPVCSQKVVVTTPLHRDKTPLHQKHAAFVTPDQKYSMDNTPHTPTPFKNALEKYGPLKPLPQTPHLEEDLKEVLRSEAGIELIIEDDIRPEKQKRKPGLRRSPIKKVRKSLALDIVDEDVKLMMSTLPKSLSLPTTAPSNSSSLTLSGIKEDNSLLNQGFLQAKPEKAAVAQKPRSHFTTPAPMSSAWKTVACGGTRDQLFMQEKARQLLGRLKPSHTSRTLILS
# No constants are given. Whether binding was seen depends on the method and setting. In cells and extracts the contact can be indirect. A yes stands for co-enrichment or nearness to the bait. Other partners may have been found. For part of these data: No binding means not detected with the bait.
# How the values were obtained:
# recombinant ERα protein [1] = target: recombinant ERα protein (UniProt P03372); assay: affinity purification with mass spectrometry; ERE DNA pulldown: biotinylated 921 bp 4xERE DNA on Dynabeads M280 streptavidin, 0.5 ug recombinant ERα + 1 mg MCF-7:5C nuclear extract, with 1 uM BPTPE, 1.5 h at 4°C, three washes; label-free LC-MS, enrichment against vehicle (ethanol), duplicates; only the target purified
# recombinant ERα protein [2] = target: recombinant ERα protein (UniProt P03372); assay: affinity purification with mass spectrometry; ERE DNA pulldown: biotinylated 921 bp 4xERE DNA on Dynabeads M280 streptavidin, 0.5 ug recombinant ERα + 1 mg MCF-7:5C nuclear extract, with 1 uM 3OHTPE, 1.5 h at 4°C, three washes; label-free LC-MS, enrichment against vehicle (ethanol), duplicates; only the target purified
# recombinant ERα protein [3] = target: recombinant ERα protein (UniProt P03372); assay: affinity purification with mass spectrometry; ERE DNA pulldown: biotinylated 921 bp 4xERE DNA on Dynabeads M280 streptavidin, 0.5 ug recombinant ERα + 1 mg MCF-7:5C nuclear extract, with 1 uM Z2OHTPE, 1.5 h at 4°C, three washes; label-free LC-MS, enrichment against vehicle (ethanol), duplicates; only the target purified
# recombinant ERα protein [4] = target: recombinant ERα protein (UniProt P03372); assay: affinity purification with mass spectrometry; ERE DNA pulldown: biotinylated 921 bp 4xERE DNA on Dynabeads M280 streptavidin, 0.5 ug recombinant ERα + 1 mg MCF-7:5C nuclear extract, with 1 uM endoxifen, 1.5 h at 4°C, three washes; label-free LC-MS, enrichment against vehicle (ethanol), duplicates; only the target purified
# recombinant ERα protein [5] = target: recombinant ERα protein (UniProt P03372); assay: affinity purification with mass spectrometry; ERE DNA pulldown: biotinylated 921 bp 4xERE DNA on Dynabeads M280 streptavidin, 0.5 ug recombinant ERα + 1 mg MCF-7:5C nuclear extract, with 100 nM E2, 1.5 h at 4°C, three washes; label-free LC-MS, enrichment against vehicle (ethanol), duplicates; only the target purified
Molecule,binding (recombinant ERα protein [1]),binding (recombinant ERα protein [2]),binding (recombinant ERα protein [3]),binding (recombinant ERα protein [4]),binding (recombinant ERα protein [5])
GREB1L (from UniProt Q9C091 1-1923),–,–,binds,–,–
p300 (EP300) (from UniProt Q09472 1-2414),–,–,binds,no binding (only with 1 uM endoxifen),binds
NCOA6 (from UniProt Q14686 1-2063),–,–,binds,no binding (only with 1 uM endoxifen),binds
TBC1D9B (from UniProt Q66K14 1-1250),–,–,binds,–,–
"PHC3 (protein, UniProt Q8NDX5 1-983) MDTEPNPGTSSVSTTTSSTTTTTITTSSSRMQQPQISVYSGSDRHAVQVIQQALHRPPSSAAQYLQQMYAAQQQHLMLHTAALQQQHLSSSQLQSLAAVQASLSSGRPSTSPTGSVTQQSSMSQTSINLSTSPTPAQLISRSQASSSTSGSITQQTMLLGSTSPTLTASQAQMYLRAQMLIFTPATTVAAVQSDIPVVSSSSSSSCQSAATQVQNLTLRSQKLGVLSSSQNGPPKSTSQTQSLTICHNKTTVTSSKISQRDPSPESNKKGESPSLESRSTAVTRTSSIHQLIAPASYSPIQPHSLIKHQQIPLHSPPSKVSHHQLILQQQQQQIQPITLQNSTQDPPPSQHCIPLQNHGLPPAPSNAQSQHCSPIQSHPSPLTVSPNQSQSAQQSVVVSPPPPHSPSQSPTIIIHPQALIQPHPLVSSALQPGPNLQQSTANQVQATAQLNLPSHLPLPASPVVHIGPVQQSALVSPGQQIVSPSHQQYSSLQSSPIPIASPPQMSTSPPAQIPPLPLQSMQSLQVQPEILSQGQVLVQNALVSEEELPAAEALVQLPFQTLPPPQTVAVNLQVQPPAPVDPPVVYQVEDVCEEEMPEESDECVRMDRTPPPPTLSPAAITVGRGEDLTSEHPLLEQVELPAVASVSASVIKSPSDPSHVSVPPPPLLLPAATTRSNSTSMHSSIPSIENKPPQAIVKPQILTHVIEGFVIQEGLEPFPVSRSSLLIEQPVKKRPLLDNQVINSVCVQPELQNNTKHADNSSDTEMEDMIAEETLEEMDSELLKCEFCGKMGYANEFLRSKRFCTMSCAKRYNVSCSKKFALSRWNRKPDNQSLGHRGRRPSGPDGAAREHILRQLPITYPSAEEDLASHEDSVPSAMTTRLRRQSERERERELRDVRIRKMPENSDLLPVAQTEPSIWTVDDVWAFIHSLPGCQDIADEFRAQEIDGQALLLLKEDHLMSAMNIKLGPALKICARINSLKES",no binding (only with 1 uM BPTPE),binds,binds,binds,–

# Continued, values first:
binding (recombinant ERα protein [1]),binding (recombinant ERα protein [2]),binding (recombinant ERα protein [3]),binding (recombinant ERα protein [4]),binding (recombinant ERα protein [5]),Molecule
no binding (only with 1 uM BPTPE),no binding (only with 1 uM 3OHTPE),binds,binds,–,SETX (from UniProt Q7Z333 1-2677)
no binding (only with 1 uM BPTPE),binds,binds,binds,–,TRIM28 (from UniProt Q13263 1-835)
binds,no binding (only with 1 uM 3OHTPE),no binding (only with 1 uM Z2OHTPE),binds,–,MYBL2 (from UniProt P10244 1-700)
